Results as given in US20200071417A1.
Results are given in words; binding and its absence hold for the method and conditions named. Some results given as binding are weak or reduced against the parent protein; the word gives no strength.

Amino acid sequences for entries named in this document (tags omitted). A change or cut given only in a name is not applied to a line headed by its entry.
UniProt P51683: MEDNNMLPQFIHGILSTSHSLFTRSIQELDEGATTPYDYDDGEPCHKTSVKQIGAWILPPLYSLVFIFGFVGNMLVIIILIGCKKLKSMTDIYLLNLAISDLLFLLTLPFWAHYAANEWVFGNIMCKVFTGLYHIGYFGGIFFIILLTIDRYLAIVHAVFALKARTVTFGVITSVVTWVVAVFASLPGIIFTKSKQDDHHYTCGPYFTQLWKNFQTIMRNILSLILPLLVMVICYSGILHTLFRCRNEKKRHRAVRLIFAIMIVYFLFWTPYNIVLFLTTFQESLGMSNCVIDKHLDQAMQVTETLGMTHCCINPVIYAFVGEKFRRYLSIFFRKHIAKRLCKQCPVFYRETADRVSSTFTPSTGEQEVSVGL
UniProt P09581: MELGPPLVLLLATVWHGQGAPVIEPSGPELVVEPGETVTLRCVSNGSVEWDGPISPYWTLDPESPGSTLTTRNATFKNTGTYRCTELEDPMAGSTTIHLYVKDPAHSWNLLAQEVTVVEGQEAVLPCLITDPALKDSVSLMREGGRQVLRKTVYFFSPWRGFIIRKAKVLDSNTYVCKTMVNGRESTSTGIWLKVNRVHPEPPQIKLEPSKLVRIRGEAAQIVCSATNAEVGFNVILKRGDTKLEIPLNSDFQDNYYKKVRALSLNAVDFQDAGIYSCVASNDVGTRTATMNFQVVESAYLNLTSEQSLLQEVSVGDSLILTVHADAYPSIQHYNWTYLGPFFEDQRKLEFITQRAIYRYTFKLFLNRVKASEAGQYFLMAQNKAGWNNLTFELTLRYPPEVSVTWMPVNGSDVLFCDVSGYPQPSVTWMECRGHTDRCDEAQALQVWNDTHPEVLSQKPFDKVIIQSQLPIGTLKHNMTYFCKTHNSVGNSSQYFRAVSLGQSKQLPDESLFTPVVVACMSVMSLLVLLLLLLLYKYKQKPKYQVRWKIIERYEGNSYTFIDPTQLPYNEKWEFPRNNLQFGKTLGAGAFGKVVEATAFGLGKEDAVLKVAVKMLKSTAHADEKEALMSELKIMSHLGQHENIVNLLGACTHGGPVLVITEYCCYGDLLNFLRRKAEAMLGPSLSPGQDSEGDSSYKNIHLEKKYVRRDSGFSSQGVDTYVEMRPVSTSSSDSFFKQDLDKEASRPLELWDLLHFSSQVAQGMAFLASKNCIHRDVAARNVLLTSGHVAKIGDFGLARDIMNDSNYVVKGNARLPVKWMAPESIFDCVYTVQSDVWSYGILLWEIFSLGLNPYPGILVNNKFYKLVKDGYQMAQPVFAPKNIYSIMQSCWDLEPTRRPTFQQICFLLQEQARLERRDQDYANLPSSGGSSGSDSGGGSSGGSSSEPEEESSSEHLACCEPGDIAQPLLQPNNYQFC

Target: mouse CCR2 and mouse CSF1R co-expressed on the same ExpiCHO cells (mouse) (UniProt P51683+P09581)
Test: flow cytometry on transiently transfected ExpiCHO cells

B1: UniTI-01 (multispecific molecule #1), anti-CCR2/anti-CSF1R bispecific antibody (bispecific antibody)
heavy 1: QVQLQESGPGLVQPSQTLSLTCTVSGFSLTDFSVHWVRQPPGKGLEWMGRIRSEGNTDYNSALKSRLSISRDTSKSQVFLKMNSLQTEDTAIYFCTRGDILGFGYWGQGVMVTVSSAQTTAPSVYPLAPGCGDTTSSTVTLGCLVKGYFPEPVTVTWNSGALSSDVHTFPAVLQSGLYTLTSSVTSSTWPSQTVTCNVAHPASSTKVDKKVERRTIKPCPPCKCPAPNLLGGPSVFIFPPKIKDVLMISLSPIVTCVVVDVSEDDPDVQISWFVNNVEVHTAQTQTHREDYNSTLRVVSALPIQHQDWMSGKEFKCKVNNKDLPAPIERTISKPKGSVRAPQVYVLPPCEEEMTKKQVTLWCMVTDFMPEDIYVEWTNNGKTELNYKNTEPVLDSDGSYFMYSKLRVEKKNWVERNSYSCSVVHEGLHNHHTTKSFSRTPGK
light 1: DIVMTQSPLSVSVTPGESASISCRSSKSLLHFKGITFVYWYLQKPGQSPQLLIFRMSSLASGVPDRFSGSGSETDFTLKISRVEAEDVGTYYCGQLLENPYTFGAGTKLELKRADAAPTVSIFPPSMEQLTSGGATVVCFVNNFYPRDISVKWKIDGSEQRDGVLDSVTDQDSKDSTYSMSSTLSLTKVEYERHNLYTCEVVHKTSSSPVVKSFNRNEC
heavy 2: QVQLQQSGAELVKPGSSVKISCKASGYTFTSNFMHWIKQQPGNGLEWIGWIYPGDGDTEYNQKFNGKATLTADKSSSTAYMQLSSLTSEDSAVYFCAVNYGGYVLDAWGQGASVTVSSAETTAPSVYPLAPGTALKSNSMVTLGCLVKGYFPEPVTVTWNSGALSSGVHTFPAVLQSGLYTLTSSVTVPSSTWSSQAVTCNVAHPASSTKVDKKIVPRECNTIKPCPPCKCPAPNLLGGPSVFIFPPKIKDVLMISLSPIVTCVVVDVSEDDPDVQISWFVNNVEVHTAQTQTHREDYNSTLRVVSALPIQHQDWMSGKEFKCKVNNKDLPAPIERTISKPKGSVRAPQVCVLPPPEEEMTKKQVTLSCAVTDFMPEDIYVEWTNNGKTELNYKNTEPVLDSDGSYFMVSKLRVEKKNWVERNSYSCSVVHEGLHNHHTTKSFSRTPGK
light 2: EIVLTQSPTTMAASPGEKVTITCRASSSTNYMSWYQQKSGASPKPWIYETSKLASGVPDRFSGSGSGTSYSFTISSMETEDAATYYCHQWSSTPLTFGSGTKLEIKRADAAPTVSIFPPSMEQLTSGGATVVCFVNNFYPRDISVKWKIDGSEQRDGVLDSVTDQDSKDSTYSMSSTLSLTKVEYERHNLYTCEVVHKTSSSPVVKSFNRNEC
binding: binds
